Results from US9872844B2, “Compositions and methods for the reduction or prevention of hepatic steatosis” (priority 2014, dated 2018).
For at least one compound, name, drawing or mass did not settle the structure.

Tests used:
Type in all cases: in vivo, C57Bl/6 mice
hepatic steatosis [1] = assay: Liver weight after six weeks treatment in chronic high fat diet mice
hepatic steatosis [2] = assay: Histological analysis of hepatic lipid accumulation in chronic high fat diet mice; settings: HFD mice, six weeks
C-reactive protein (CRP) = assay: Circulating C-reactive protein in high fat diet mice; settings: Example 5; HFD mice, six weeks; leucine 24 g/kg diet alone or with icariin 25 mg/kg diet
hepatic steatosis [3] = assay: Prophylactic treatment concurrent with high fat diet: liver mass and hepatic lipid accumulation; settings: Example 8; treatment and HFD started same day, six weeks; leucine 24 g/kg diet alone or with icariin 25 mg/kg diet
Protocol: In this study, the prophylactic effects of metformin alone, and various combinations of metformin, leucine, and resveratrol on liver mass and hepatic steatosis are assessed. C57Bl/6 mice are assigned to the following experimental groups as depicted in Table 25: Drug treatments and high fat diet feeding (as described in Example 1) are initiated on the same day and are carried out for six weeks. The effects of the treatments and diet on liver mass and hepatic lipid accumulation are assessed as described in the preceding examples. […] In this study, the prophylactic effects of metformin alone, and various combinations of metformin, HMB, and resveratrol on liver mass and hepatic steatosis are assessed. C57Bl/6 mice are assigned to the following experimental groups as depicted in Table 26: Drug treatments and high fat diet feeding (as described in Example 1) are initiated on the same day and are carried out for six weeks. The effects of the treatments and diet on liver mass and hepatic lipid accumulation are assessed as described in the preceding examples. […] In this study, the prophylactic effects of sub-therapeutic leucine alone, and co-administration of leucine and the PDE5-specific inhibitor icariin on liver mass and hepatic steatosis are assessed. […] The effects of the treatments and diet on liver mass and hepatic lipid accumulation are assessed as described in the preceding examples.

CC(C)C[C@H](N)C(=O)O [leucine]
effect on liver weight (hepatic steatosis [1]; Example 2, HFD mice, therapeutic metformin alone 1.5 g/kg diet, leucine 24 g/kg diet, resveratrol 12.5 mg/kg diet): no significant effect on liver weight | effect on liver weight (hepatic steatosis [1]; Example 5, HFD mice, leucine 24 g/kg diet alone or with icariin 25 mg/kg diet (p<0.01 vs. HFD)): no effect on liver weight | hepatic steatosis (histological analysis) (hepatic steatosis [2]; Example 2, metformin alone 1.5 g/kg diet, leucine 24 g/kg diet, resveratrol 12.5 mg/kg diet, combination with sub-therapeutic metformin): did not appear to significantly reduce hepatic steatosis | hepatic steatosis (histological analysis) (hepatic steatosis [2]; Example 3, single agents at 'therapeutic dosages' (metformin 1.5 g/kg diet)): partially reversed hepatic steatosis | circulating C-reactive protein (CRP) (C-reactive protein (CRP)): no independent effect | HFD-induced increase in liver mass and hepatic lipid accumulation (prophylactic) (hepatic steatosis [3]): no significant effect on HFD-induced increase in liver mass and hepatic lipid accumulation
